Patent US20240148779A1, “METHODS FOR THE TREATMENT OF PROTEINOPATHIES” (RENATUS INC., priority 2022, published 2024)

System: Aβ42
Assay: Zebrafish Alzheimer's model, amount of Aβ42 in the brain
Format: in vivo
Settings: 5 days post-injection of Aβ42, FIG. 14

Compound: COc1cc2c(cc1OC)C(=O)C(CC1CCN(Cc3ccccc3)CC1)C2 (stereo not shown) [donepezil, Donepezil]
- amount of Aβ42 in the brain: did not
